# Source: PubChem BioAssay AID504467 (National Center for Advancing Translational Sciences (NCATS), 2011)
# About 7,700 (2.3%) of roughly 330,000 compounds were called active. The shares of active, inactive and inconclusive entries below differ from those in the screen. Calls come from the whole dose curve; as a rule, active = well fitted inhibition curve with a large enough effect; inconclusive = small, poorly fitted or top-dose-only effect, or effect the other way; inactive = flat fitted curve, though single readings scatter. Where the call is inconclusive, the potency comes from a doubtful curve fit.
# Assay: qHTS screen for small molecules that inhibit ELG1-dependent DNA repair in human embryonic kidney (HEK293T) cells expressing luciferase-tagged ELG1; note: nearly all actives have a fitted effect of over 55% in size
# Details: HEK293T ELG1-luciferase reporter, luminescence, 16 h, DNA damage induced by 5-fluorouridine; series mostly up to 46.1 µM
# In short: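 5-Fluorouridine DNA damage + compound/DMSO, 2,000 cells/well, 16 h, 37 °C/5% CO2. ONE-Glo, 30 min RT, luminescence. Readout = decrease in reporter signal.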
# Potency is the fitted concentration of half-maximal effect.
row,Structure (SMILES),Potency
1,CC(C)Cc1nc(N2CCN(C(=O)c3ccco3)CC2)c(C#N)c2c1CCCC2,inactive
2,O=C(COc1ccc(F)cc1)N1CCc2ccccc2C1,"inconclusive: 20.6 µM [activator, partial curve, poor fit]"
3,COc1ccccc1S(=O)(=O)Cc1ccc(C(=O)NC(C)c2ccc3c(c2)OCCO3)o1 (configuration not stated),"inconclusive: 23.1 µM [inhibitor, single point]"
4,CC(=O)c1ccc(NC(=S)N2CCN(CCO)CC2)cc1,inactive
5,COc1cccc(N=Nc2ccc3cccnc3c2O)c1,active: 2.31 µM
6,Cc1occc1-c1nnc(SC(C)C(=O)Nc2ccccc2F)o1 (configuration not stated),"inconclusive: 3.66 µM [activator, partial curve]"
7,CN(C)CCCN(C(=O)c1cc2ccccc2oc1=O)c1nc2ccc(F)cc2s1,"inconclusive: 29.1 µM [activator, single point]"
8,Cc1ccc(C)c(NC(=O)CCC(=O)N2CCOc3ccccc32)c1,inactive
9,CCOC(=O)CSc1nc2c(sc3ccccc32)c(=O)n1CCCN1CCOCC1,"inconclusive: 29.1 µM [inhibitor, single point]"
10,COc1ccc(C(CNC(=O)c2ccc(S(=O)(=O)N3CCCC3)cc2)N2CCOCC2)cc1 (configuration not stated),"inconclusive: 1.16 µM [inhibitor, single point]"
11,Clc1cc(Cl)c2nc(N3CCOCC3)sc2c1,"inconclusive: 13 µM [activator, partial curve]"
12,CN1CCOc2ccc(S(=O)(=O)NCCc3ccc(Cl)cc3)cc21,inactive
13,Cc1cc(N2CCOCC2)nc(SCC(=O)c2ccc(Cl)cc2)n1,"inconclusive: 23.1 µM [inhibitor, single point]"
14,CC1CCc2nc(NC(=O)c3ccc(S(=O)(=O)N4CCCc5ccccc54)cc3)sc2C1 (configuration not stated),active: 2.91 µM
15,O=[N+]([O-])c1cccc(-c2c(-c3ccccc3)ncc3ccc(F)cc23)c1,"inconclusive: 23.1 µM [activator, partial curve, poor fit]"
16,Cc1ccc2sc(-c3ccc(NC(=O)/C=C\C(=O)O)cc3)nc2c1,"inconclusive: 5.17 µM [activator, partial curve]"
17,Cc1noc(C)c1S(=O)(=O)Nc1ccccc1Oc1ccccc1,inactive
18,CCCCn1c(N)c(N(CC(C)C)C(=O)c2cccc(S(=O)(=O)N3CC(C)OC(C)C3)c2)c(=O)[nH]c1=O (configuration not stated),"inconclusive: 29.1 µM [activator, partial curve, poor fit]"
19,Cc1[nH]c2ccccc2c1C(=O)CN1C(=O)NC2(CC(C)CC(C)(C)C2)C1=O (configuration not stated),"inconclusive: 23.1 µM [inhibitor, single point]"
20,COc1cccc(/C=N/Nc2ncc(C)c(=O)[nH]2)c1OC,"inconclusive: 18.3 µM [activator, single point]"
21,COCc1nc2ccccc2n1Cc1ccc(Br)cc1,"inconclusive: 16.4 µM [activator, partial curve]"
22,Cc1ccccc1C(=O)Nc1sc(C)c(C)c1C(=O)c1ccccc1,"inconclusive: 20.6 µM [inhibitor, partial curve, poor fit]"
23,Cc1oc(C(C)(C)C)cc1C(=O)NC1CCN(Cc2ccccc2)CC1,"inconclusive: 20.6 µM [inhibitor, single point]"

# Reformatted: results already given
row | Structure (SMILES) | Potency
3 | COc1ccccc1S(=O)(=O)Cc1ccc(C(=O)NC(C)c2ccc3c(c2)OCCO3)o1 (configuration not stated) | inconclusive: 23.1 µM [inhibitor, single point]
8 | Cc1ccc(C)c(NC(=O)CCC(=O)N2CCOc3ccccc32)c1 | inactive
10 | COc1ccc(C(CNC(=O)c2ccc(S(=O)(=O)N3CCCC3)cc2)N2CCOCC2)cc1 (configuration not stated) | inconclusive: 1.16 µM [inhibitor, single point]
15 | O=[N+]([O-])c1cccc(-c2c(-c3ccccc3)ncc3ccc(F)cc23)c1 | inconclusive: 23.1 µM [activator, partial curve, poor fit]
22 | Cc1ccccc1C(=O)Nc1sc(C)c(C)c1C(=O)c1ccccc1 | inconclusive: 20.6 µM [inhibitor, partial curve, poor fit]

# (cont.)

row,Structure (SMILES),Potency
1,CC1CC(C)CN(C(=O)Cn2c(=O)c3cccn3c3cccnc32)C1 (configuration not stated),"inconclusive: 25.9 µM [activator, single point]"
2,O=C(Nc1cccc(Cl)c1)Nc1cc(S(=O)(=O)N2CCCCC2)ccc1Cl,"inconclusive: 18.4 µM [inhibitor, single point]"
3,CSc1nnc2c(n1)[nH]c1c(C)cccc12,"inconclusive: 0.501 µM [inhibitor, full curve, poor fit]"
4,COC(=O)C1=C(C)N=C2SCCC(=O)N2C1c1ccc(OC(=O)c2ccco2)cc1 (configuration not stated),"inconclusive: 18.4 µM [activator, partial curve, poor fit]"
5,O=C(c1ccco1)N1CCN(S(=O)(=O)c2ccc(Oc3ccccc3)cc2)CC1,"inconclusive: 20.6 µM [inhibitor, partial curve, poor fit]"
6,CC(/C=N\NC(=O)Cn1cncn1)=C/c1ccc(C(C)C)cc1,"inconclusive: 16.4 µM [activator, partial curve, poor fit]"
7,CC(=O)Oc1cccc(N2C(=O)C3C4C=CC(C4)C3C2=O)c1 (configuration not stated),inactive
8,CC(C)CN(CC(C)C)S(=O)(=O)N1CCC(C(=O)NCc2ccc3c(c2)OCO3)CC1,"inconclusive: 29.1 µM [inhibitor, single point]"
9,O=C(O)C1(P(=O)(c2ccccc2)c2ccccc2)CCCC1,"inconclusive: 13 µM [activator, partial curve, poor fit]"
10,O=C(CCNC(=O)c1ccco1)Nc1ccc(Cl)cc1,"inconclusive: 25.9 µM [inhibitor, single point]"
11,Cc1ccc(Nc2nc(N)nc(CSC(=S)N3CCN(c4ccccc4)CC3)n2)cc1,"inconclusive: 23.1 µM [inhibitor, single point]"
12,CCCc1ccc(S(=O)(=O)N2CCN(C(C)C(=O)NCc3ccc(OC)cc3)CC2)cc1 (configuration not stated),"inconclusive: 29.1 µM [inhibitor, single point]"
13,O=C(/C=C/c1ccc([N+](=O)[O-])cc1)Nc1cccnc1,"inconclusive: 9.2 µM [activator, partial curve]"
14,O=c1c(Cc2c(F)cccc2Cl)c(O)ccn1Cc1ccc(F)cc1,inactive
15,Cc1ccc(C)c(N2CCN(C(=O)CCS(=O)(=O)c3ccc4c(c3)NC(=O)C(C)S4)CC2)c1 (configuration not stated),active: 4.61 µM
16,COc1ccccc1/C=C(\NC(=O)c1ccc(OC)c(OC)c1)C(=O)Nc1cc([N+](=O)[O-])ccc1C,active: 0.651 µM
17,O=S(=O)(c1ccc(Cl)cc1)N1c2ccccc2Oc2nc3ccccc3nc21,inactive
18,COc1cccc(NC(=S)NC2CC(C)(C)NC(C)(C)C2)c1,inactive
19,O=C(/C=C/c1cccs1)NCc1ccccc1,"inconclusive: 23.1 µM [activator, partial curve]"
20,Cc1ccc(C(=O)NCCc2ccccc2)cc1N1CCCC1=O,"inconclusive: 20.6 µM [activator, single point]"
21,Cc1ccccc1NC(=O)c1ccccn1,"inconclusive: 25.9 µM [activator, single point]"
22,CCN(CC)c1ccc(NC(=O)c2ccccc2F)cc1,"inconclusive: 1.16 µM [activator, full curve]"
23,CCCc1nnc(NC(=O)CCC(=O)NC2CCCCCC2)s1,"inconclusive: 29.1 µM [activator, single point]"

row,Structure (SMILES),Potency
1,Cc1cc(=O)cc(C)n1-c1ccc(Cl)cc1,inactive
2,CCCOc1ccc(-c2c(C(=O)N/N=C/C3CCCCC3)nnn2-c2nonc2N)cc1,inactive
3,c1ccc(N2OCC3Cn4c(nc5ccccc54)C32)cc1 (configuration not stated),"inconclusive: 23.1 µM [activator, partial curve]"
4,COc1ccc(N2CCN(C(=O)CNC(=O)Cn3c(C)cc4ccccc4c3=O)CC2)cc1,"inconclusive: 9.2 µM [inhibitor, partial curve]"
5,CCN(Cc1nc2cc(Cl)ccc2c(=O)[nH]1)C(=O)c1ccc(C)c(NC(=O)c2ccco2)c1,"inconclusive: 35.5 µM [inhibitor, single point]"
6,Cc1ccc(-c2nc(C#N)c(NCc3cccc4c3OCO4)o2)cc1,"inconclusive: 23.1 µM [activator, partial curve]"
7,O=[N+]([O-])c1cccc(/C=N\N2CCN(Cc3ccccc3Cl)CC2)c1,"inconclusive: 29.1 µM [activator, single point]"
8,CC1CCCC(C)N1C(=O)COC(=O)c1ccco1 (configuration not stated),"inconclusive: 18.3 µM [activator, partial curve, poor fit]"
9,Cc1ccccc1CN1CCC(N2CCC(C(=O)NCC3CCCO3)CC2)CC1 (configuration not stated),inactive
10,O=C(C1CCC(=O)N1Cc1ccccc1Cl)N1CCN(c2ccc(F)cc2)CC1 (configuration not stated),"inconclusive: 23.1 µM [inhibitor, partial curve, poor fit]"
11,Cc1cc(C(=O)N2CCCC(C(=O)c3ccc(Cl)cc3C)C2)no1 (configuration not stated),"inconclusive: 23.1 µM [inhibitor, single point]"
12,C#CCOCCOCCOCCNc1nc(N2CCN(C(=O)[C@H](CCCCN)n3cc(C(N)[C@H](C)CC)nn3)CC2)nc(N2CCN(C(=O)[C@H](CCC(=O)O)n3cc(C(N)[C@H](C)CC)nn3)CC2)n1 (some centres not stated),"inconclusive: 32.6 µM [activator, single point]"
13,Cc1ccc(C)c2c3c([nH]c12)-c1nonc1CC3,inactive
14,Cc1cc(C(=O)COC(=O)c2ccc(F)cc2F)c(C)n1C1CC1,"inconclusive: 8.2 µM [activator, partial curve]"
15,CCN(CC)S(=O)(=O)c1cccc(NC(=O)COC(=O)c2cc(C)oc2C)c1,active: 20.6 µM
16,CN(C)C1=NCCN1CCCCc1ccccc1,inactive
17,COC(=O)N(C)c1nc2ccccc2s1,"inconclusive: 4.11 µM [activator, single point]"
18,CCOc1ccc(CN(C(=O)c2oc3ccccc3c2C)C2CCS(=O)(=O)C2)cc1 (configuration not stated),"inconclusive: 16.4 µM [inhibitor, partial curve]"
19,CCOC(=O)c1nn(-c2ccc(F)cc2)c2c1CC/C2=C/c1ccccc1,inactive
20,Cc1ccc2nc(-c3ccc(NC(=O)COC(=O)c4ccc(Br)o4)cc3)sc2c1,"inconclusive: 1.16 µM [activator, partial curve]"
21,Cc1cc(OCCN2CCOCC2)ccc1Cl,"inconclusive: 23.1 µM [activator, single point]"
